Three compounds from patent US20250179106A1, “Metal Bis(Imino) Aryl Compounds and Methods Thereof” (EXXONMOBIL CHEMICAL PATENTS INC., priority 2022, published 2025) can be followed below.

Structures are written as SMILES.

The nature of the data set: Polymerizations in 2 L autoclave with supported catalyst. The note with it: supported catalyst (MAO/ES70 875 silica), 85° C., ethylene 220 psig, 1-hexene, H2, 60 minutes. The procedure:
A 2 L autoclave was heated to 110° C. and purged with N2 for at least 30 minutes. The reactor was then charged with dry NaCl (150 g; Fisher, S271-10) and scavenger (trimethylaluminum on silica, 3 g) and heated for 30 minutes at 85° C. 1-Hexene (2.5 mL) and 10% H2 in N2 (120 SCCM) were added, and stirring was then commenced (450 RPM). Supported catalyst was injected into the reactor with ethylene at a pressure of 220 psig. After the injection, the reactor temperature was controlled at 85° C. and ethylene was allowed to flow into the reactor to maintain constant pressure. Both hydrogen and 1-hexene were fed into the reactor as constant ratios to ethylene flow, 0.5 mg/g and 0.1 g/g, respectively. Hydrogen and ethylene ratios were measured by on-line GC analysis. The polymerization was halted after 60 minutes by venting the reactor. The polymer was washed twice with water to remove the salt, then dried in air for at least two days.

On to `CCCC[Si](CCCC)(CCCC)CC(=Nc1c(C)cc(Cl)cc1C)c1cccc(C(C[Si](CCCC)(CCCC)CCCC)=Nc2c(C)cc(Cl)cc2C)n1.[Cl][Fe][Cl]` [Catalyst 7], for which the “Catalyst Productivity (gP/gCat/h)” value was determined as 430 gP/gCat/h.
The same measure for `CCCC[Si](CCCC)(CCCC)CC(=Nc1c(C)cc(C)cc1Cl)c1cccc(C(C[Si](CCCC)(CCCC)CCCC)=Nc2c(C)cc(C)cc2Cl)n1.[Cl][Fe][Cl]` [Catalyst 9]: 988 gP/gCat/h.
Under `CCCC[Si](CCCC)(CCCC)CC(=Nc1c(C)ccc(Cl)c1C)c1cccc(C(C[Si](CCCC)(CCCC)CCCC)=Nc2c(C)ccc(Cl)c2C)n1.[Cl][Fe][Cl]` [Catalyst 8] stands 391 gP/gCat/h.
